Data as given in patent US20230074223A1, “COMPOSITIONS AND METHODS FOR THE TREATMENT OF MASTITIS” (SOCIETE DES PRODUITS NESTLE S.A., priority 2019, published 2023).

B1: Lactoferrin: major human milk protein (protein, UniProt P02788 20-710, looked up)
Lactotransferrin: GRRRSVQWCAVSQPEATKCFQWQRNMRKVRGPPVSCIKRDSPIQCIQAIAENRADAVTLDGGFIYEAGLAPYKLRPVAAEVYGTERQPRTHYYAVAVVKKGGSFQLNELQGLKSCHTGLRRTAGWNVPIGTLRPFLNWTGPPEPIEAAVARFFSASCVPGADKGQFPNLCRLCAGTGENKCAFSSQEPYFSYSGAFKCLRDGAGDVAFIRESTVFEDLSDEAERDEYELLCPDNTRKPVDKFKDCHLARVPSHAVVARSVNGKEDAIWNLLRQAQEKFGKDKSPKFQLFGSPSGQKDLLFKDSAIGFSRVPPRIDSGLYLGSGYFTAIQNLRKSEEEVAARRARVVWCAVGEQELRKCNQWSGLSEGSVTCSSASTTEDCIALVLKGEADAMSLDGGYVYTAGKCGLVPVLAENYKSQQSSDPDPNCVDRPVEGYLAVAVVRRSDTSLTWNSVKGKKSCHTAVDRTAGWNIPMGLLFNQTGSCKFDEYFSQSCAPGSDPRSNLCALCIGDEQGENKCVPNSNERYYGYTGAFRCLAENAGDVAFVKDVTVLQNTDGNNNEAWAKDLKLADFALLCLDGKRKPVTEARSCHLAMAPNHAVVSRMDKVERLKQVLLHQQAKFGRNGSDCPDKFCLFQSETKNLLFNDNTECLARLHGKTTYEKYLGPQYVAGITNLKKCSTSPLLEACEFLRK
B2: Alpha-lactalbumin: major human milk protein (protein, UniProt P00709 20-142, looked up)
Alpha-lactalbumin: KQFTKCELSQLLKDIDGYGGIALPELICTMFHTSGYDTQAIVENNESTEYGLFQISNKLWCKSSQVPQSRNICDISCDKFLDDDITDDIMCAKKILDIKGIDYWLAHKALCTEKLEQWLCEKL

Assay: Protein concentrations of human milk by SCM status (LabChip)
Details: for Concentration in milk of women with sub-clinical mastitis in comparison to normal women: in words

Molecule	Concentration of human milk (Any SCM, Day 2)	Concentration of human milk (Any SCM, Day 17)	Concentration of human milk (Any SCM, Day 30)	Concentration of human milk (Any SCM, Day 60)	Concentration of human milk (Any SCM, Day 90)	Concentration of human milk (Any SCM, Day 120)	Concentration of human milk (Normal, Day 2)	Concentration of human milk (Normal, Day 17)	Concentration of human milk (Normal, Day 30)	Concentration of human milk (Normal, Day 60)	Concentration of human milk (Normal, Day 90)	Concentration of human milk (Normal, Day 120)	Concentration in milk of women with sub-clinical mastitis in comparison to normal women
B1	7053.9 ± 3832.6 ng/µL	3315.6 ± 2486.1 ng/µL	2430.8 ± 2176.9 ng/µL	1757.1 ± 955.4 ng/µL	1543.1 ± 699.2 ng/µL	1510.4 ± 1502.3 ng/µL	5340.2 ± 2372.7 ng/µL	2379.4 ± 913.4 ng/µL	1765.9 ± 680.7 ng/µL	1339.0 ± 485.6 ng/µL	1298.6 ± 810.1 ng/µL	1468.2 ± 3269.1 ng/µL	higher concentrations
B2	3232.8 ± 685.0 ng/µL	3131.2 ± 548.4 ng/µL	2893.1 ± 506.6 ng/µL	2469.0 ± 466.5 ng/µL	2249.5 ± 422.3 ng/µL	2089.4 ± 415.8 ng/µL	3043.6 ± 597.1 ng/µL	3036.6 ± 544.4 ng/µL	2740.7 ± 499.1 ng/µL	2278.1 ± 372.4 ng/µL	2126.7 ± 374.1 ng/µL	2015.8 ± 378.0 ng/µL	higher concentrations
